Source: patent publication US7790673
Numbering of substitutions follows the chain as printed. Names may count otherwise. These are yes or no findings as the source states them, for the method shown.

B1: wild type human cystatin C (protein, UniProt P01034 27-146, looked up)
chain: SSPGKPPRLVGGPMDASVEEEGVRRALDFAVGEYNKASNDMYHSRALQVVRARKQIVAGVNYFLDVELGRTTCTKTQPNLDNCPFHDQPHLKRKAFCSFQIYAVPWQGTMTLSKSTCQDA
B2: variant human cystatin C (L68Q, HCHWA-I variant) (protein, UniProt P01034 27-146, looked up)
chain: B1 chain with L68Q

Molecular target: GST protein without the Aβ sequence
Test: GST pull-down from HEK293 culture media, immunoblot with anti-cystatin C antibody

Row | Binder | binding
1 | B1 | no binding
2 | B2 | no binding
